Data as given in patent US20080213297 (published 2008).

Assay: general procedure: Fmoc solid-phase peptide synthesis; 2-Chlorotrityl-resin
Details: conjugation step

Question: With “{5-[({5-[2-(2-Acetylamino-propionylamino)-3-phenyl-propionylamino]-5-carbamoyl-pentylcarbamoyl}-methyl)-carbamoyl]-5-[5-(4-formyl-3-hydroxy-phenoxy)-pentanoylamino]-pentyl}-trimethyl-ammonium 22” as the substance, how does the conjugation yield read?
Answer: The conjugation yield was 28%.
